Test results: patent publication US20230059341A1
Results are given in words; binding and its absence hold for the method and conditions named. Some entries that bind do so weakly or less than the wild type.

Amino acid sequences for entries named in this document (tags omitted). A change or cut given only in a name is not applied to a line headed by its entry. Residues count along the entry.
UniProt P55899: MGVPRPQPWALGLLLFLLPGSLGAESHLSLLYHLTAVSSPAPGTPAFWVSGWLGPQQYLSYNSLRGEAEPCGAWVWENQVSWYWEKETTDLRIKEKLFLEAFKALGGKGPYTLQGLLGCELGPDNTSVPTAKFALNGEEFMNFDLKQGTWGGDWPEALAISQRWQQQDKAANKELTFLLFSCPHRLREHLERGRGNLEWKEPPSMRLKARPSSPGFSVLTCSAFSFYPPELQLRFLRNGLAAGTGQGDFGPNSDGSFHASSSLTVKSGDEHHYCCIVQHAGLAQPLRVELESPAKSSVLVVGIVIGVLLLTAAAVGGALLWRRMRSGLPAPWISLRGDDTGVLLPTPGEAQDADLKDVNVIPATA
UniProt Q15116, residues 25-288: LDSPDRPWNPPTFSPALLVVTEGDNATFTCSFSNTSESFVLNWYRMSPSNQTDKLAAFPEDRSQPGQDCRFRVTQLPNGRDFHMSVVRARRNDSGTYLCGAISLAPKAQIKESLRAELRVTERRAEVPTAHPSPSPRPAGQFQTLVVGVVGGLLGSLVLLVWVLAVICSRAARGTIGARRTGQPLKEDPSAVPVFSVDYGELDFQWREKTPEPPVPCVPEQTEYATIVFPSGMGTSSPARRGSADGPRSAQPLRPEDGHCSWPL

Tests used:
[1] = target: Neonatal Fc Receptor (FcRn) (UniProt P55899); experiment: FcRn binding assay, BIACORE (SPR)
[2] = target: PD-1 protein constitutively expressed on engineered CHO K1 cells (UniProt Q15116); experiment: MSD potency assay (competitive binding on PD-1 CHO K1 cells)

binding [1]: binds
binding [2]: binds
B1: Dostarlimab, sustained agitation, 300 rpm, 25° C., 3 weeks (antibody, human IgG4 S228P, kappa, V domains shown)
VH: EVQLLESGGGLVQPGGSLRLSCAASGFTFSSYDMSWVRQAPGKGLEWVSTISGGGSYTYYQDSVKGRFTISRDNSKNTLYLQMNSLRAEDTAVYYCASPYYAMDYWGQGTTVTVSS
VL: DIQLTQSPSFLSAYVGDRVTITCKASQDVGTAVAWYQQKPGKAPKLLIYWASTLHTGVPSRFSGSGSGTEFTLTISSLQPEDFATYYCQHYSSYPWTFGQGTKLEIKR
modifications: all PTM levels within analytical variability of the control
